In PubChem BioAssay AID2685 (National Center for Advancing Translational Sciences (NCATS), 2010) one finds cell number change and AC50 data, which are given here for 38 compounds.

A short description of the test: qHTS Assay for Lipid Storage Modulators in Drosophila S3 Cells.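 As to cell number change: cells counted by Cell Tracker Red CMTPX staining in the red channel.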 As to conditions: BODIPY lipid droplet fluorescence, 18-24 h; for cell number change: measured here: cell count max response, cells fed with added oleic acid. The gist of the method:
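Laser-scanning cytometry quantifies lipid droplet accumulation (500–530 nm total intensity; droplet/cell object ratio) in oleic acid-fed (400 uM added) Drosophila S3 cells treated with a concentration series. 20 uM Triacsin C defined 100% inhibition.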
Background: qHTS replaces the single test concentration by a dilution series.

Setting [1] is: measured here: lipid fluorescence (Fed channel) AC50, cells fed with added oleic acid.
The mark [2] stands for this setting: measured here: cell number channel AC50, cells fed with added oleic acid.

Each structure is given as a SMILES string. Some of the results follow. Further columns of the screen follow, without active or inactive calls. The list favours compounds with an active or inconclusive main result. Potencies come from curve fits of mixed quality, noted in brackets.

The term AC50 denotes the concentration at which the activity in the assay is half-maximal. A low value points to activity at low concentration.

Turning to `COc1ccc(-c2cc(=O)oc3c(C)c(OCC(=O)Nc4cccnc4)ccc23)cc1`, the cell number change stood at 18.7%. In addition, under setting [1], the AC50 is 29.1 µM [falling, single point].
Regarding `Cn1c(SCC(=O)NC2CCCC2)nnc1-c1ccncc1`, the cell number change is -21.5%. Further, under setting [1], the AC50 was 0.411 µM [falling, full curve, poor fit].
In the case of `Cc1ccc2c(=O)c(C(=O)NCc3cccs3)c[nH]c2c1`, the cell number change was -2.57%. Also, the AC50 under setting [1] was 1.3 µM [rising, partial curve].
As to `COC(=O)CC1=NN(c2ccccc2)C(=O)/C1=C\c1ccc(OC)cc1`, the cell number change is -22.8%.
`CCc1ccc(N(CC(=O)Nc2ccc(NC(C)=O)cc2)S(=O)(=O)c2ccccc2)cc1`: the cell number change was 13.9%. Further, the AC50 under setting [2] was 6.51 µM [rising, single point]. Moreover, under setting [1], the AC50 was 2.06 µM [rising, partial curve, poor fit].
With `CCOc1ccc(NC(=O)c2ccc(NC(=O)COC(=O)c3ccc(NC(=O)CC#N)cc3)cc2)cc1`, the cell number change was -24.1%. Further, the AC50 under setting [1] was 5.8 µM [falling, full curve].
On to `O=C(Nc1cccc(C(=O)N2CCCC2)c1)c1ccccc1`, for which the cell number change was determined as 72.2%. Also, the AC50 under setting [2] was 29.1 µM [rising, single point].
As for `Cc1cc(C)cc(OCC(=O)Nc2ccncc2)c1`, the cell number change is 6.2%. For the same compound, the AC50 under setting [1] was 29.1 µM [falling, single point].
Regarding `Cc1ccc(CNC(=O)CCCn2c(=O)[nH]c3ccccc3c2=O)cc1`, the cell number change came out at 1.17%. Moreover, the AC50 under setting [1] was 3.26 µM [falling, full curve].
`CC1Cc2ccccc2N1C(=O)C(C)n1cc(C(F)(F)F)cc(Cl)c1=O` (stereo not drawn): the cell number change is -6.46%. Besides, under setting [1], the half-maximal activity concentration (AC50) was 0.184 µM [rising, full curve, poor fit].
Take `C/C(=N\N=C(N)N)c1ccc(C)c(C)c1`: the cell number change came out at 23.5%. In addition, under setting [2], the AC50 was 4.11 µM [rising, full curve, poor fit]. For the same compound, under setting [1], the AC50 is 5.8 µM [rising, full curve, poor fit].
Regarding `CC1=C(C(=O)OC(C)C)C(c2cccs2)NC(=O)N1` (stereo not drawn), the cell number change is -5.58%. In addition, under setting [2], the AC50 was 0.58 µM [falling, single point].
As to `CC(=O)Oc1ccc2ccccc2c1C(NC(=O)Cc1ccccc1)c1ccc(Cl)cc1` (stereo not drawn), the cell number change is -13.9%. In addition, the concentration at half-maximal activity (AC50) under setting [1] was 6.51 µM [rising, single point].
As to `COCCN1CCN(Cc2nc(C3(c4ccc(C)cc4)CCCC3)no2)CC1`, the cell number change amounted to 43.1%. Further, the half-maximal activity concentration (AC50) under setting [2] is 16.4 µM [rising, partial curve, poor fit].
Turning to `CC1=NNC(=O)C1CCC(=O)N/N=C(/C)c1ccc([N+](=O)[O-])cc1` (stereo not drawn), the cell number change was -3%. Besides, the AC50 under setting [1] is 3.26 µM [falling, full curve, poor fit].
For the compound `CCCCCOc1ccc(C(=O)Nc2ccc(S(=O)(=O)Nc3cc(C)on3)cc2)cc1`, the cell number change stood at 784%. For the same compound, the AC50 under setting [2] was 20.6 µM [rising, partial curve].
Regarding `Cn1nc([N+](=O)[O-])nc1Oc1ccccc1F`, the cell number change was determined as 126%. Moreover, under setting [2], the AC50 is 23.1 µM [rising, partial curve]. Further, under setting [1], the AC50 is 23.1 µM [rising, partial curve].
For `CCCn1c(C(O)c2ccc(OC)c(OC)c2)nc2ccccc21` (stereo not drawn), the cell number change is -17.2%. Besides, under setting [1], the concentration at half-maximal activity (AC50) is 14.6 µM [falling, partial curve].
Take `COc1ccc(C2C=C(c3ccccc3)Nc3ncnn32)cc1` (stereo not drawn): the AC50 under setting [1] was 0.58 µM [rising, single point].
As to `Cc1csc(NC(=O)CSc2nncc(=O)n2N)n1`, the cell number change came to 19%.
Turning to `Cc1cc(C)c(C)c(S(=O)(=O)ON2C(=O)c3ccccc3C2=O)c1C`, the cell number change was -37.3%. Moreover, the AC50 under setting [2] is 23.1 µM [falling, single point]. Moreover, the AC50 under setting [1] is 8.2 µM [falling, partial curve].
Consider `Cc1cc(Cl)cc2sc(NC(=O)C3CC3)nc12`, for which the cell number change amounted to 4.61%. In addition, the AC50 under setting [1] was 0.116 µM [rising, full curve, poor fit].
On to `Cc1c(C)c2c(OCC(=O)Nc3cccnc3)cc3c(c2oc1=O)CCC(C)(C)O3`, for which the cell number change came to 35.6%. For the same compound, under setting [2], the concentration at half-maximal activity (AC50) is 18.4 µM [rising, partial curve, poor fit]. Also, the half-maximal activity concentration (AC50) under setting [1] was 29.1 µM [rising, single point].
For the compound `CCOc1ccc(Oc2ccc(C(F)(F)F)cc2NC(=O)C2=COCCO2)cc1`, the cell number change is -36.9%. For the same compound, the AC50 under setting [2] is 16.4 µM [falling, single point]. Under setting [1], the AC50 is 16.4 µM [falling, single point].
For the compound `COc1cc(/C=C/C(=O)Nc2ccc(N3CCCCC3)c(S(=O)(=O)Nc3ccccc3Cl)c2)cc(OC)c1OC`, the cell number change is 0.594%. Moreover, the AC50 under setting [1] was 6.51 µM [falling, single point].
With `Cc1ccc(N2CCN(/N=C/c3ccccc3[N+](=O)[O-])CC2)cc1`, the cell number change is -9.41%. Moreover, under setting [1], the AC50 is 29.1 µM [falling, single point].
Turning to `Cc1cc(N2CCOCC2)nc2ccc(NC(=S)N3CCN(c4ccccc4)CC3)cc12`, the cell number change is -54.7%. Further, the half-maximal activity concentration (AC50) under setting [2] is 25.9 µM [falling, single point]. For the same compound, the AC50 under setting [1] was 32.6 µM [falling, single point].
For the compound `Cc1ccccc1C(=O)NNc1ccc(-c2csnn2)cc1`, the cell number change was -31.9%. For the same compound, the AC50 under setting [1] was 32.6 µM [falling, single point].
On to `O=S(=O)(NC1C2CC3CC(C2)CC1C3)c1ccccc1` (stereo not drawn), for which the cell number change was -14.4%.
With `CCc1cc2c(NC(C(=O)O)C(C)C)ncnc2s1` (stereo not drawn), the cell number change is -14.1%. In addition, the AC50 under setting [1] was 32.6 µM [falling, single point].
With `CC(c1ccco1)N(C(=O)c1ccccc1NS(=O)(=O)c1ccc(Cl)cc1)c1ccccn1` (stereo not drawn), the cell number change stood at 5.26%. For the same compound, the AC50 under setting [1] was 5.8 µM [rising, single point].
In the case of `CC(C)C(OC(=O)Cn1nnc2ccccc21)C(=O)NC1CCCC1` (stereo not drawn), the cell number change is 9.46%.
As for `C/C(=N\NC(=O)c1ccco1)c1cc(Cl)sc1Cl`, the cell number change stood at 24.6%.
On to `CCS(=O)(=O)Nc1ccc(Cc2ccc(NS(=O)(=O)CC)cc2)cc1`, for which the cell number change turned out to be 84.1%. Also, the AC50 under setting [2] is 20.6 µM [rising, single point]. In addition, under setting [1], the AC50 was 16.4 µM [rising, partial curve].
In the case of `Cc1cc(C)nc(NC(=O)NC(=O)c2ccccc2)n1`, the cell number change was -4.4%.
Regarding `COc1cc2c(cc1OC)C(c1cccc(F)c1)CC(=O)N2` (stereo not drawn), the cell number change was -0.351%. Also, under setting [1], the AC50 is 6.51 µM [rising, partial curve].
Regarding `CCOc1ccc(-n2c(SCc3ccc(C(=O)OC)o3)nc3c(c2=O)SCC3)cc1`, the cell number change was determined as 4.86%. For the same compound, the AC50 under setting [1] is 7.31 µM [rising, partial curve].
With `Cc1ccc(-n2nc3c(c2NC(=O)c2ccccc2Br)CS(=O)C3)cc1` (stereo not drawn), the cell number change came out at 44.9%. In addition, under setting [2], the AC50 was 6.51 µM [rising, partial curve, poor fit]. Besides, under setting [1], the AC50 is 6.51 µM [rising, full curve].
